# The supplement of paper PMC8728848
# This is one part of the list.
# Tests used:
# Assay in all cases: glycan array binding signal (z-score within array); higher = stronger binding
# Details in all cases: glycan notation: IUPAC condensed, linker removed
# [1] = target: GlcNAc(b1-3)Gal(b1-4)GlcNAc(b1-2)Man(a1-3)[GlcNAc(b1-3)Gal(b1-4)GlcNAc(b1-2)Man(a1-6)]Man(b1-4)GlcNAc(b1-4)GlcNAc
# Procedure, shortened: (§1)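 Glycan array binding is given as a within-array Z-score, which can be read as non-binding when negative. The arrays, 3228 of them, came from the Consortium for Functional Glycomics database and were retained only where the protein sequence was available. Z-scores were averaged across arrays of the same protein sequence at different concentrations or buffers and across linkers.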
# [2] = target: GlcNAc(b1-3)Gal(b1-4)GlcNAc(b1-2)Man(a1-3)[GlcNAc(b1-3)Gal(b1-4)GlcNAc(b1-2)Man(a1-6)]Man(b1-4)GlcNAc(b1-4)[Fuc(a1-6)]GlcNAc
# Procedure, shortened: as §1
# [3] = target: GlcNAc(b1-3)Gal(b1-4)GlcNAc(b1-2)[GlcNAc(b1-3)Gal(b1-4)GlcNAc(b1-6)]Man(a1-6)[GlcNAc(b1-3)Gal(b1-4)GlcNAc(b1-2)Man(a1-3)]Man(b1-4)GlcNAc(b1-4)GlcNAc
# Procedure, shortened: as §1
# [4] = target: GlcNAc(b1-3)Gal(b1-4)GlcNAc(b1-3)Gal(b1-4)GlcNAc
# Procedure, shortened: as §1
# [5] = target: GlcNAc(b1-3)Gal(b1-4)GlcNAc(b1-3)Gal(b1-4)GlcNAc(b1-2)Man(a1-3)[GlcNAc(b1-3)Gal(b1-4)GlcNAc(b1-3)Gal(b1-4)GlcNAc(b1-2)Man(a1-6)]Man(b1-4)GlcNAc(b1-4)GlcNAc
# Procedure, shortened: as §1
# [6] = target: GlcNAc(b1-3)Gal(b1-4)GlcNAc(b1-3)Gal(b1-4)GlcNAc(b1-2)Man(a1-3)[GlcNAc(b1-3)Gal(b1-4)GlcNAc(b1-3)Gal(b1-4)GlcNAc(b1-2)Man(a1-6)]Man(b1-4)GlcNAc(b1-4)[Fuc(a1-6)]GlcNAc
# Procedure, shortened: as §1
# [7] = target: GlcNAc(b1-3)Gal(b1-4)GlcNAc(b1-3)Gal(b1-4)GlcNAc(b1-2)[GlcNAc(b1-3)Gal(b1-4)GlcNAc(b1-3)Gal(b1-4)GlcNAc(b1-6)]Man(a1-6)[GlcNAc(b1-3)Gal(b1-4)GlcNAc(b1-3)Gal(b1-4)GlcNAc(b1-2)Man(a1-3)]Man(b1-4)GlcNAc(b1-4)[Fuc(a1-6)]GlcNAc
# Procedure, shortened: as §1
# [8] = target: GlcNAc(b1-3)Gal(b1-4)GlcNAc(b1-3)Gal(b1-4)GlcNAc(b1-3)Gal(b1-4)GlcNAc(b1-2)Man(a1-3)[GlcNAc(b1-3)Gal(b1-4)GlcNAc(b1-3)Gal(b1-4)GlcNAc(b1-3)Gal(b1-4)GlcNAc(b1-2)Man(a1-6)]Man(b1-4)GlcNAc(b1-4)GlcNAc
# Procedure, shortened: as §1
# [9] = target: GlcNAc(b1-3)Gal(b1-4)GlcNAc(b1-3)Gal(b1-4)GlcNAc(b1-3)Gal(b1-4)GlcNAc(b1-2)Man(a1-3)[GlcNAc(b1-3)Gal(b1-4)GlcNAc(b1-3)Gal(b1-4)GlcNAc(b1-3)Gal(b1-4)GlcNAc(b1-2)Man(a1-6)]Man(b1-4)GlcNAc(b1-4)[Fuc(a1-6)]GlcNAc
# Procedure, shortened: as §1
# [10] = target: GlcNAc(b1-3)Gal(b1-4)GlcNAc(b1-3)Gal(b1-4)GlcNAc(b1-3)Gal(b1-4)GlcNAc(b1-2)[GlcNAc(b1-3)Gal(b1-4)GlcNAc(b1-3)Gal(b1-4)GlcNAc(b1-3)Gal(b1-4)GlcNAc(b1-6)]Man(a1-6)[GlcNAc(b1-3)Gal(b1-4)GlcNAc(b1-3)Gal(b1-4)GlcNAc(b1-3)Gal(b1-4)GlcNAc(b1-2)Man(a1-3)]Man(b1-4)GlcNAc(b1-4)[Fuc(a1-6)]GlcNAc
# Procedure, shortened: as §1
# [11] = target: GlcNAc(b1-3)Gal(b1-4)GlcNAc(b1-3)Gal(b1-4)GlcNAc(b1-3)Gal(b1-4)GlcNAc(b1-3)Gal(b1-4)GlcNAc(b1-2)Man(a1-3)[GlcNAc(b1-3)Gal(b1-4)GlcNAc(b1-3)Gal(b1-4)GlcNAc(b1-3)Gal(b1-4)GlcNAc(b1-3)Gal(b1-4)GlcNAc(b1-2)Man(a1-6)]Man(b1-4)GlcNAc(b1-4)GlcNAc
# Procedure, shortened: as §1
# [12] = target: GlcNAc(b1-3)Gal(b1-4)GlcNAc(b1-3)Gal(b1-4)GlcNAc(b1-3)Gal(b1-4)GlcNAc(b1-3)Gal(b1-4)GlcNAc(b1-2)Man(a1-3)[GlcNAc(b1-3)Gal(b1-4)GlcNAc(b1-3)Gal(b1-4)GlcNAc(b1-3)Gal(b1-4)GlcNAc(b1-3)Gal(b1-4)GlcNAc(b1-2)Man(a1-6)]Man(b1-4)GlcNAc(b1-4)[Fuc(a1-6)]GlcNAc
# Procedure, shortened: as §1
# [13] = target: GlcNAc(b1-3)Gal(b1-4)GlcNAc(b1-3)Gal(b1-4)GlcNAc(b1-3)Gal(b1-4)GlcNAc(b1-3)Gal(b1-4)GlcNAc(b1-2)[GlcNAc(b1-3)Gal(b1-4)GlcNAc(b1-3)Gal(b1-4)GlcNAc(b1-3)Gal(b1-4)GlcNAc(b1-3)Gal(b1-4)GlcNAc(b1-6)]Man(a1-6)[GlcNAc(b1-3)Gal(b1-4)GlcNAc(b1-3)Gal(b1-4)GlcNAc(b1-3)Gal(b1-4)GlcNAc(b1-3)Gal(b1-4)GlcNAc(b1-2)Man(a1-3)]Man(b1-4)GlcNAc(b1-4)[Fuc(a1-6)]GlcNAc
# Procedure, shortened: as §1
# [14] = target: GlcNAc(b1-3)Gal(b1-4)GlcNAc(b1-3)Gal(b1-4)GlcNAc(b1-3)GalNAc
# Procedure, shortened: as §1
# [15] = target: GlcNAc(b1-3)Gal(b1-4)GlcNAc(b1-3)GalNAc
# Procedure, shortened: as §1
# [16] = target: GlcNAc(b1-3)Gal(b1-4)GlcNAc(b1-3)[GlcNAc(b1-3)Gal(b1-4)GlcNAc(b1-3)]GalNAc
# Procedure, shortened: as §1
# [17] = target: GlcNAc(b1-3)Gal(b1-4)GlcNAc(b1-6)[Gal(b1-3)]GalNAc
# Procedure, shortened: as §1
# [18] = target: GlcNAc(b1-3)Gal(b1-4)GlcNAc(b1-6)[GlcNAc(b1-3)Gal(b1-3)]GalNAc
# Procedure, shortened: as §1
# [19] = target: GlcNAc(b1-3)Gal(b1-4)GlcNAc(b1-6)[GlcNAc(b1-3)]Gal(b1-4)GlcNAc
# Procedure, shortened: as §1
binder,measurement,setting,value
"RsaA-N-term (Caulobacter crescentus), P35828 (protein) MAYTTAQLVTAYTNANLGKAPDAATTLTLDAYATQTQTGGLSDAAALTNTLKLVNSTTAVAIQTYQFFTGVAPSAAGLDFLVDSTTNTNDLNDAYYSKFAQENRFINFSINLATGAGAGATAFAAAYTGVSYAQTVATAYDKIIGNAVATAAGVDVAAAVAFLSRQANIDYLTAFVRANTPFTAAADIDLAVKAALIGTILNAATVSGIGGYATATAAMINDLSDGALSTDNAAGVNLFTAYPSSGVSGSTLSLTTGTDTLTGTANNDTFVAGEVAGDGSGWSHPQFEKGG",glycan array binding signal (z-score),[1],2.18
same,glycan array binding signal (z-score),[2],1.5
same,glycan array binding signal (z-score),[3],0.218
same,glycan array binding signal (z-score),[4],0.629
same,glycan array binding signal (z-score),[5],2.59
same,glycan array binding signal (z-score),[6],1.65
same,glycan array binding signal (z-score),[7],0.425
same,glycan array binding signal (z-score),[8],0.491
same,glycan array binding signal (z-score),[9],0.299
same,glycan array binding signal (z-score),[10],0.217
same,glycan array binding signal (z-score),[11],1.09
same,glycan array binding signal (z-score),[12],-0.37
same,glycan array binding signal (z-score),[13],0.312
same,glycan array binding signal (z-score),[14],0.037
same,glycan array binding signal (z-score),[15],-0.557
same,glycan array binding signal (z-score),[16],-0.645
same,glycan array binding signal (z-score),[17],-0.217
same,glycan array binding signal (z-score),[18],-0.111
same,glycan array binding signal (z-score),[19],-0.727

# Reformatted: results already given
binder	measurement	setting	value
RsaA-N-term (Caulobacter crescentus), P35828 (protein) MAYTTAQLVTAYTNANLGKAPDAATTLTLDAYATQTQTGGLSDAAALTNTLKLVNSTTAVAIQTYQFFTGVAPSAAGLDFLVDSTTNTNDLNDAYYSKFAQENRFINFSINLATGAGAGATAFAAAYTGVSYAQTVATAYDKIIGNAVATAAGVDVAAAVAFLSRQANIDYLTAFVRANTPFTAAADIDLAVKAALIGTILNAATVSGIGGYATATAAMINDLSDGALSTDNAAGVNLFTAYPSSGVSGSTLSLTTGTDTLTGTANNDTFVAGEVAGDGSGWSHPQFEKGG	glycan array binding signal (z-score)	[11]	1.09
same	glycan array binding signal (z-score)	[12]	-0.37
